{"sequences": {"note": "By UniProt entry, the sequences of proteins in these tests, tags left out. Where a name states a change or a piece, a line headed by the entry shows the natural chain unless it says otherwise.", "UniProt P08246": "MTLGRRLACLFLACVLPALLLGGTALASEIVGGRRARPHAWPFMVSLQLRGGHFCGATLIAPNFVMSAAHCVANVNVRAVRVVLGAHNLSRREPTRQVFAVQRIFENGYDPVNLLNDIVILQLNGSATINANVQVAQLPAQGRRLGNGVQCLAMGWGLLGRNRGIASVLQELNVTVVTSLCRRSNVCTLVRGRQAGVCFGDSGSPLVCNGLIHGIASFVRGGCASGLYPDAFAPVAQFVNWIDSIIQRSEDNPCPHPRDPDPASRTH", "UniProt P54762": "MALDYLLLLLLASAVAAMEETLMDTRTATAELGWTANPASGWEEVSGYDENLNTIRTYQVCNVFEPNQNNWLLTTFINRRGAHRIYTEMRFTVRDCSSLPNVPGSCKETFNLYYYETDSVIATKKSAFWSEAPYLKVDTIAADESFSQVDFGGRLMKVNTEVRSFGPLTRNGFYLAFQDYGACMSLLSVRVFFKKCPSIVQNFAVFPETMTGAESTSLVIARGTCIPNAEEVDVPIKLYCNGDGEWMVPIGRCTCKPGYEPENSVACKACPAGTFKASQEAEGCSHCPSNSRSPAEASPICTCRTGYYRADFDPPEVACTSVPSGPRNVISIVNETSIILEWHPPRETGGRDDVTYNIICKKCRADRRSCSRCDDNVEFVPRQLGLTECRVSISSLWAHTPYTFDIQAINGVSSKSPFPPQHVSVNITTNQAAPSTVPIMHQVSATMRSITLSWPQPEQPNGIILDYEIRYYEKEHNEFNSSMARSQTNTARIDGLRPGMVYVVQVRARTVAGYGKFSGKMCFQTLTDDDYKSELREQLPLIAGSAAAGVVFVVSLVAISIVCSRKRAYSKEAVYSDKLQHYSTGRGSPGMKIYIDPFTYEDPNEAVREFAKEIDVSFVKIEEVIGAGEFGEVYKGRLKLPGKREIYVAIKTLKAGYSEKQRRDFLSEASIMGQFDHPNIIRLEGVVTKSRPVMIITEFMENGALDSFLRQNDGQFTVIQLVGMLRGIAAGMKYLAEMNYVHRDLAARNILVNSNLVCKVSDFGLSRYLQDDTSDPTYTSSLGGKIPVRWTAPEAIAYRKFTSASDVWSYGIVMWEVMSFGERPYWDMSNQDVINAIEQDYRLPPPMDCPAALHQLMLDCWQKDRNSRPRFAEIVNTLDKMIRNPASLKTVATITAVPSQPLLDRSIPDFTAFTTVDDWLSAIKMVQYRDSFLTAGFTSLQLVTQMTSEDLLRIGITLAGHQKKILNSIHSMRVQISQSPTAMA", "UniProt P06213, whole entry, looked up": "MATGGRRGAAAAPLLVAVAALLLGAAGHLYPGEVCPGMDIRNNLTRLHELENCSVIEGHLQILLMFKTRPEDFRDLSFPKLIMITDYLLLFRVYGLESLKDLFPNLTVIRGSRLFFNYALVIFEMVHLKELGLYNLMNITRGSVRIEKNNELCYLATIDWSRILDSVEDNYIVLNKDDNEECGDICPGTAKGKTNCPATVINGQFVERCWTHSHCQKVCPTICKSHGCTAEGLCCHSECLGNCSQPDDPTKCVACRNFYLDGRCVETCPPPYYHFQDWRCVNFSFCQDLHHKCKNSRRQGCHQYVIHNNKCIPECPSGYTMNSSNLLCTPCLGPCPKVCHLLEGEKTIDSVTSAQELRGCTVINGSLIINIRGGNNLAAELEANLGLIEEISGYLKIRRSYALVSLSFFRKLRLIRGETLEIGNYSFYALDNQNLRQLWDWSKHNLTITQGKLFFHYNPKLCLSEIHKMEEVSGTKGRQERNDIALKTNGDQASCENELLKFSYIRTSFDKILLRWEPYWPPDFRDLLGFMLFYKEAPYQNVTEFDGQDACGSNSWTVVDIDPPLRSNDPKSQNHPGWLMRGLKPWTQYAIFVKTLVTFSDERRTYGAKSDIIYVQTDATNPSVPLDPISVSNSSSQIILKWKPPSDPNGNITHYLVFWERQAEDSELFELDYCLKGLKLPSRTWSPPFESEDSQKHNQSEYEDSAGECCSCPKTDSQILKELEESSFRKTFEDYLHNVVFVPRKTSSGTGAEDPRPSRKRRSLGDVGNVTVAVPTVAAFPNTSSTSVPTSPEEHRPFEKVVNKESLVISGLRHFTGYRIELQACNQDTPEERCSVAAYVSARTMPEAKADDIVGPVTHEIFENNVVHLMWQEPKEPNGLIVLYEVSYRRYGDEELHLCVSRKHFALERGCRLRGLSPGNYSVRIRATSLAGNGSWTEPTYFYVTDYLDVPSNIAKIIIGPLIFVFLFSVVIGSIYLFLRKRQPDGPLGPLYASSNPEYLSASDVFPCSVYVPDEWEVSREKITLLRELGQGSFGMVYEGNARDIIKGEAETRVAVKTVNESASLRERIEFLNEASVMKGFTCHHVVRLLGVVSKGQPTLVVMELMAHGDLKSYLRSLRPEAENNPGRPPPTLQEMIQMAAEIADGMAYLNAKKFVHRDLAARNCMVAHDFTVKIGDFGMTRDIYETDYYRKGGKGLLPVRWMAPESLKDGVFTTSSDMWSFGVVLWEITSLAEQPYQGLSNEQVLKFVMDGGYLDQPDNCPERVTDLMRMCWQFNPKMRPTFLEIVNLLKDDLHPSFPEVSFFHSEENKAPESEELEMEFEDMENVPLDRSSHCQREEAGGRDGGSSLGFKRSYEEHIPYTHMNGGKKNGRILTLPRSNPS", "UniProt P49841": "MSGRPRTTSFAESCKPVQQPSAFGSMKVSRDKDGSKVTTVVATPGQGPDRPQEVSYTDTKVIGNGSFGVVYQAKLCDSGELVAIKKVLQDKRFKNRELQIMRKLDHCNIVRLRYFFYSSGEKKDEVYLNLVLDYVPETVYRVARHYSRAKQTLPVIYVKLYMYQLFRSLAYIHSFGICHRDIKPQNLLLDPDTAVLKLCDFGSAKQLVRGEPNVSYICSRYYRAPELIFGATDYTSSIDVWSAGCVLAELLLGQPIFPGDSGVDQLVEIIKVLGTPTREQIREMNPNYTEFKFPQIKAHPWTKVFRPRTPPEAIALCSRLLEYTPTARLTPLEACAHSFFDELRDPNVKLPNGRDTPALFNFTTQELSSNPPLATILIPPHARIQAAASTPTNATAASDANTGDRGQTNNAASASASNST", "UniProt O60674": "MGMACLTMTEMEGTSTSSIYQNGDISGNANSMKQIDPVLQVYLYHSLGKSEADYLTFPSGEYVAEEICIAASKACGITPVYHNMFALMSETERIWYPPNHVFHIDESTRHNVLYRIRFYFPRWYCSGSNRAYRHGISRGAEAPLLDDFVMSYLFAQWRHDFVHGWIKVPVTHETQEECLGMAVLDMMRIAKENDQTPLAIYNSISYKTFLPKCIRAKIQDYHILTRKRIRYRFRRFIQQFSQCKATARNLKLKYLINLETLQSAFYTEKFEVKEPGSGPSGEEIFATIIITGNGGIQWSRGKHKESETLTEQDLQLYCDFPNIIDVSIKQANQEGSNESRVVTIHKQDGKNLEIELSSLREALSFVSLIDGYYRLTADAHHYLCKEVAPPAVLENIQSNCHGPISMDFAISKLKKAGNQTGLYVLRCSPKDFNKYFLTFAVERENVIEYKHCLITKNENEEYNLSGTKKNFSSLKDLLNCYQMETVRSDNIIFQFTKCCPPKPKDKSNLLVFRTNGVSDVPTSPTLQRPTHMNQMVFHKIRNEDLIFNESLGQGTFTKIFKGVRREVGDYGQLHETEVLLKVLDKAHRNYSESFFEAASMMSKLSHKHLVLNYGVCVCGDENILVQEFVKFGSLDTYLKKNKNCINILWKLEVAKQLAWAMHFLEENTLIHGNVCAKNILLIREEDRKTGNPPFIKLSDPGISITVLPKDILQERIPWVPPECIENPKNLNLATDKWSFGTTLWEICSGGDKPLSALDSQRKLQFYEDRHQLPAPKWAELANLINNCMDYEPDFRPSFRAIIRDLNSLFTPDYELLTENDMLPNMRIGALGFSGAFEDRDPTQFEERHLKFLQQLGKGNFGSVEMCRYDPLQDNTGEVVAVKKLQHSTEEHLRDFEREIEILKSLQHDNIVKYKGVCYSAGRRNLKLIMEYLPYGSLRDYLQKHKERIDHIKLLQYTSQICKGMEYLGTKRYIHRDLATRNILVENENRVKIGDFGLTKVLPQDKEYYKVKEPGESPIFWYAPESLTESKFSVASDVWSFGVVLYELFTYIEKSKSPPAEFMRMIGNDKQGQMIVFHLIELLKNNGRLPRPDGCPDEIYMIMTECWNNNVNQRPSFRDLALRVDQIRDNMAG"}, "source": "PubChem BioAssay (EPA / NIEHS)", "key": {"[1]": {"target": "human Elastase, ELANE (gene 1991) (UniProt P08246)", "test": "NVS_ENZ_hElastase: NovaScreen (NVS) Enzymatic Assay for human Elastase (AID 2283153)", "outline": "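Cell-free elastase from human neutrophils, 1.5 h after dosing, activity read by absorbance. Primary screen in duplicate at 25 uM; hits (e.g., 30% inhibition) rerun in singleton concentration-response up to 50 uM, fitted versus DMSO.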"}, "[2]": {"target": "human Ephrin type-B Receptor 1 (EphB1), EPHB1 (gene 2047) (UniProt P54762)", "test": "NVS_ENZ_hEphB1: NovaScreen (NVS) Enzymatic Assay for human Ephrin type-B Receptor 1 (EphB1) (AID 2283154)", "outline": "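Cell-free kinase assay with recombinant enzyme, fluorescent substrate and electrophoretic mobility-shift separation of substrate and product; read 1 h after dosing. Single-concentration duplicate screen at 25 uM; loss of signal versus DMSO baseline.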"}, "[3]": {"target": "human Insulin Receptor (InsR), INSR (gene 3643) (UniProt P06213)", "test": "NVS_ENZ_hInsR: NovaScreen (NVS) Enzymatic Assay for human Insulin Receptor (InsR) (AID 2283168)", "outline": "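Fluorescent substrate phosphorylation by recombinant kinase, product resolved by electrophoretic mobility shift, read 1 h after dosing. Screened in duplicate at 25 uM; hits (e.g., 30% inhibition) run in concentration-response to 50 uM; DMSO as baseline.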"}, "[4]": {"target": "Glycogen synthase kinase-3 beta (Homo sapiens) (UniProt P49841)", "test": "NVS_ENZ_hGSK3b: NovaScreen (NVS) Enzymatic Assay for human Glycogen Synthase Kinase-3 beta (GSK3b) (AID 2283165)", "outline": "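Recombinant enzyme with specific fluorescent substrate, 1 h, product separated by electrophoretic mobility shift. Primary duplicate screen at 25 uM; actives (e.g. 30% inhibition) followed in singleton concentration-response to 50 uM. Signal loss fitted versus DMSO.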"}, "[5]": {"target": "human Janus Kinase 2 (Jak2), JAK2 (gene 3717) (UniProt O60674)", "test": "NVS_ENZ_hJak2: NovaScreen (NVS) Enzymatic Assay for human Janus Kinase 2 (Jak2) (AID 2283169)", "outline": "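Cell-free recombinant human JAK2 enzyme activity assay, fluorescence/electrophoretic mobility shift read 1 h after dosing. Screened in duplicate at 25 uM, then concentration-response up to 50 uM; activity as signal loss relative to DMSO.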"}, "[6]": {"target": "human c-Jun N-terminal Kinases (JNK2), MAPK9 (gene 5601) (UniProt P45984)", "test": "NVS_ENZ_hJNK2: NovaScreen (NVS) Enzymatic Assay for human c-Jun N-terminal Kinases (JNK2) (AID 2283171)", "outline": "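Cell-free recombinant human JNK2 activity assay; fluorescent substrate and product separated by electrophoretic mobility shift, read 1 h after dosing. Primary duplicate screen at 25 uM; actives run in concentration-response up to 50 uM, relative to DMSO.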"}}, "note": "This list was built around the results that the source calls inconclusive (neither active nor inactive); the mix of calls is not that of the screen. For part of these data: A potency beside an inconclusive call is a rough fit, not a confirmed value. Activity calls are given as the source filed them. Rule for the calls: active = hit-call score of the fitted dose curve at least 0.9, where 1 is the maximum; inconclusive = response in the unintended direction; inactive = score below 0.9.", "data": [{"compound": "c1ccc2cc3c(ccc4ccccc43)cc2c1", "values": [{"measurement": "AC50", "setting": "[1]", "result": "active: 46.9 µM"}]}, {"compound": "C[C@]12CC[C@@H]3c4ccc(O)cc4C[C@@H](CCCCCCCCCS(=O)CCCC(F)(F)C(F)(F)F)[C@H]3[C@@H]1CC[C@@H]2O", "note": "(some centres not stated)", "values": [{"measurement": "AC50", "setting": "[1]", "result": "inconclusive: 15.5 µM"}]}, {"compound": "CCOC(=O)COc1cc(-n2ncc(C(F)(F)F)c(C)c2=O)c(F)cc1Cl", "values": [{"measurement": "AC50", "setting": "[2]", "result": "inconclusive: 25 µM"}, {"measurement": "AC50", "setting": "[3]", "result": "inconclusive: 0.0244 µM"}]}, {"compound": "O=C(c1ccc(O)cc1O)c1ccc(O)cc1O", "values": [{"measurement": "AC50", "setting": "[4]", "result": "active: 25 µM"}, {"measurement": "AC50", "setting": "[3]", "result": "active: 19.3 µM"}]}, {"compound": "COc1ccc2sc(C(=O)Nc3nnn[nH]3)c(OC(C)C)c2c1", "values": [{"measurement": "AC50", "setting": "[4]", "result": "active: 1.42 µM"}]}, {"compound": "CN(C)C(=O)NC1(c2ccccc2)CCN(CCC[C@]2(c3ccc(Cl)c(Cl)c3)CCCN(C(=O)c3ccccc3)C2)CC1", "values": [{"measurement": "AC50", "setting": "[3]", "result": "inconclusive: 6.25 µM"}]}, {"compound": "CC(C)CCCCCCc1ccc(O)cc1", "values": [{"measurement": "AC50", "setting": "[5]", "result": "inconclusive: 25 µM"}]}, {"compound": "O=c1[nH]cnc2c1ncn2[C@H]1CC[C@@H](CO)O1", "values": [{"measurement": "AC50", "setting": "[6]", "result": "inconclusive: 25 µM"}]}, {"compound": "O=C(O)C1(C(=O)Nc2ccc(Cl)cc2Cl)CC1", "values": [{"measurement": "AC50", "setting": "[6]", "result": "active: 25 µM"}]}, {"compound": "O=C(O)CC(O)(CC(=O)O)C(=O)O", "values": [{"measurement": "outcome", "setting": "[6]", "result": "inactive"}]}]}
